# Some of the results follow. Most of these values are background signal.
# Tests used:
# Assay in all cases: fluorescence intensity of antibody binding to polysaccharide-coupled beads; higher = stronger binding
# [1] = biological target: pneumococcal polysaccharide Pn13
# [2] = biological target: pneumococcal polysaccharide Pn14
# [3] = biological target: pneumococcal polysaccharide Pn15A
# [4] = biological target: pneumococcal polysaccharide Pn15B
# [5] = biological target: pneumococcal polysaccharide Pn15C
# [6] = biological target: pneumococcal polysaccharide Pn15F
# [7] = biological target: pneumococcal polysaccharide Pn16A
# [8] = biological target: pneumococcal polysaccharide Pn16F
# [9] = biological target: pneumococcal polysaccharide Pn17A
# [10] = biological target: pneumococcal polysaccharide Pn17F
# [11] = biological target: pneumococcal polysaccharide Pn18A
# [12] = biological target: pneumococcal polysaccharide Pn18B
# [13] = biological target: pneumococcal polysaccharide Pn18C
# [14] = biological target: pneumococcal polysaccharide Pn18F
# [15] = biological target: pneumococcal polysaccharide Pn19A
# [16] = biological target: pneumococcal polysaccharide Pn19B
# [17] = biological target: pneumococcal polysaccharide Pn19C
# [18] = biological target: pneumococcal polysaccharide Pn19F
# [19] = biological target: pneumococcal polysaccharide Pn2
# [20] = biological target: pneumococcal polysaccharide Pn20A
# [21] = biological target: pneumococcal polysaccharide Pn20B
# [22] = biological target: pneumococcal polysaccharide Pn21
# [23] = biological target: pneumococcal polysaccharide Pn22A
# [24] = antibody concentration 0.1 ng/mL
# [25] = antibody concentration 0.534724 ng/mL
# [26] = antibody concentration 2.8593 ng/mL
# [27] = antibody concentration 15.2894 ng/mL
# [28] = antibody concentration 81.7561 ng/mL
# [29] = antibody concentration 437.17 ng/mL
# [30] = antibody concentration 2337.65 ng/mL
# [31] = antibody concentration 12500 ng/mL
binder,measurement,setting,value
4-127.1 (protein) chain 1: QVQLQESGPGLVKPSETLSLTCAVSDYSINTGHGWTWIRQPPGKGLEWIGYIGGSSGSPNYNPSLKSRVTISKDTSKNELSLKLNSVTAADTAVYYCARRIPADRSGNDFWGQGVLVTVSS chain 2: QSVLTQPPSVSGDPGQRVTISCTGSSSNIGGFYGYWYQQFPGTAPKLLIYDNNKRPSGISDRFSGSKSGTSASLTITGLQPGDEADYYCGSWDSSLSAHVFGSGTKLTVL,fluorescence intensity,[1]; [24],18 MFI
same,fluorescence intensity,[1]; [25],18 MFI
same,fluorescence intensity,[1]; [26],19 MFI
same,fluorescence intensity,[1]; [27],19.2 MFI
same,fluorescence intensity,[1]; [28],19 MFI
same,fluorescence intensity,[1]; [29],19 MFI
same,fluorescence intensity,[1]; [30],20 MFI
same,fluorescence intensity,[1]; [31],26.5 MFI
same,fluorescence intensity,[2]; [24],14 MFI
same,fluorescence intensity,[2]; [25],15.5 MFI
same,fluorescence intensity,[2]; [26],14.5 MFI
same,fluorescence intensity,[2]; [27],12 MFI
same,fluorescence intensity,[2]; [28],16 MFI
same,fluorescence intensity,[2]; [29],15.5 MFI
same,fluorescence intensity,[2]; [30],23.5 MFI
same,fluorescence intensity,[2]; [31],75.5 MFI
same,fluorescence intensity,[3]; [24],14 MFI
same,fluorescence intensity,[3]; [25],13 MFI
same,fluorescence intensity,[3]; [26],11.5 MFI
same,fluorescence intensity,[3]; [27],13.5 MFI
same,fluorescence intensity,[3]; [28],14 MFI
same,fluorescence intensity,[3]; [29],12.5 MFI
same,fluorescence intensity,[3]; [30],13 MFI
same,fluorescence intensity,[3]; [31],15 MFI
same,fluorescence intensity,[4]; [24],18.8 MFI
same,fluorescence intensity,[4]; [25],18.5 MFI
same,fluorescence intensity,[4]; [26],19.5 MFI
same,fluorescence intensity,[4]; [27],19.5 MFI
same,fluorescence intensity,[4]; [28],20 MFI
same,fluorescence intensity,[4]; [29],20.5 MFI
same,fluorescence intensity,[4]; [30],23 MFI
same,fluorescence intensity,[4]; [31],34.5 MFI
same,fluorescence intensity,[5]; [24],17.5 MFI
same,fluorescence intensity,[5]; [25],18 MFI
same,fluorescence intensity,[5]; [26],16.5 MFI
same,fluorescence intensity,[5]; [27],16 MFI
same,fluorescence intensity,[5]; [28],17.2 MFI
same,fluorescence intensity,[5]; [29],20.5 MFI
same,fluorescence intensity,[5]; [30],18.5 MFI
same,fluorescence intensity,[5]; [31],20 MFI
same,fluorescence intensity,[6]; [24],16.2 MFI
same,fluorescence intensity,[6]; [25],16.8 MFI
same,fluorescence intensity,[6]; [26],16.8 MFI
same,fluorescence intensity,[6]; [27],17.5 MFI
same,fluorescence intensity,[6]; [28],17.5 MFI
same,fluorescence intensity,[6]; [29],18.5 MFI
same,fluorescence intensity,[6]; [30],18 MFI
same,fluorescence intensity,[6]; [31],23.5 MFI
same,fluorescence intensity,[7]; [24],17 MFI
same,fluorescence intensity,[7]; [25],14 MFI
same,fluorescence intensity,[7]; [26],16 MFI
same,fluorescence intensity,[7]; [27],14.5 MFI
same,fluorescence intensity,[7]; [28],14.2 MFI
same,fluorescence intensity,[7]; [29],14.2 MFI
same,fluorescence intensity,[7]; [30],16 MFI
same,fluorescence intensity,[7]; [31],18.5 MFI
same,fluorescence intensity,[8]; [24],26 MFI
same,fluorescence intensity,[8]; [25],23 MFI
same,fluorescence intensity,[8]; [26],25.8 MFI
same,fluorescence intensity,[8]; [27],24 MFI
same,fluorescence intensity,[8]; [28],22 MFI
same,fluorescence intensity,[8]; [29],26.5 MFI
same,fluorescence intensity,[8]; [30],25 MFI
same,fluorescence intensity,[8]; [31],32.5 MFI
same,fluorescence intensity,[9]; [24],20 MFI
same,fluorescence intensity,[9]; [25],22.2 MFI
same,fluorescence intensity,[9]; [26],21 MFI
same,fluorescence intensity,[9]; [27],20.5 MFI
same,fluorescence intensity,[9]; [28],21.5 MFI
same,fluorescence intensity,[9]; [29],19 MFI
same,fluorescence intensity,[9]; [30],22 MFI
same,fluorescence intensity,[9]; [31],24 MFI
same,fluorescence intensity,[10]; [24],27.5 MFI
same,fluorescence intensity,[10]; [25],26 MFI
same,fluorescence intensity,[10]; [26],27.2 MFI
same,fluorescence intensity,[10]; [27],26.5 MFI
same,fluorescence intensity,[10]; [28],25.8 MFI
same,fluorescence intensity,[10]; [29],26.2 MFI
same,fluorescence intensity,[10]; [30],27 MFI
same,fluorescence intensity,[10]; [31],29.5 MFI
same,fluorescence intensity,[11]; [24],25.8 MFI
same,fluorescence intensity,[11]; [25],24 MFI
same,fluorescence intensity,[11]; [26],25 MFI
same,fluorescence intensity,[11]; [27],23 MFI
same,fluorescence intensity,[11]; [28],24.5 MFI
same,fluorescence intensity,[11]; [29],23.5 MFI
same,fluorescence intensity,[11]; [30],24.5 MFI
same,fluorescence intensity,[11]; [31],27.5 MFI
same,fluorescence intensity,[12]; [24],29 MFI
same,fluorescence intensity,[12]; [25],29.5 MFI
same,fluorescence intensity,[12]; [26],30.5 MFI
same,fluorescence intensity,[12]; [27],32 MFI
same,fluorescence intensity,[12]; [28],31 MFI
same,fluorescence intensity,[12]; [29],29.2 MFI
same,fluorescence intensity,[12]; [30],33.5 MFI
same,fluorescence intensity,[12]; [31],38 MFI
same,fluorescence intensity,[13]; [24],18.5 MFI
same,fluorescence intensity,[13]; [25],17.5 MFI
same,fluorescence intensity,[13]; [26],19.5 MFI
same,fluorescence intensity,[13]; [27],17.5 MFI
same,fluorescence intensity,[13]; [28],19 MFI
same,fluorescence intensity,[13]; [29],19.5 MFI
same,fluorescence intensity,[13]; [30],23.8 MFI
same,fluorescence intensity,[13]; [31],35 MFI
same,fluorescence intensity,[14]; [24],23 MFI
same,fluorescence intensity,[14]; [25],23.5 MFI
same,fluorescence intensity,[14]; [26],23 MFI
same,fluorescence intensity,[14]; [27],24.8 MFI
same,fluorescence intensity,[14]; [28],22.5 MFI
same,fluorescence intensity,[14]; [29],26 MFI
same,fluorescence intensity,[14]; [30],27.5 MFI
same,fluorescence intensity,[14]; [31],31.5 MFI
same,fluorescence intensity,[15]; [24],17.5 MFI
same,fluorescence intensity,[15]; [25],18.5 MFI
same,fluorescence intensity,[15]; [26],18.8 MFI
same,fluorescence intensity,[15]; [27],21 MFI
same,fluorescence intensity,[15]; [28],18.5 MFI
same,fluorescence intensity,[15]; [29],18 MFI
same,fluorescence intensity,[15]; [30],22.5 MFI
same,fluorescence intensity,[15]; [31],28.5 MFI
same,fluorescence intensity,[16]; [24],30.2 MFI
same,fluorescence intensity,[16]; [25],27.5 MFI
same,fluorescence intensity,[16]; [26],27 MFI
same,fluorescence intensity,[16]; [27],29 MFI
same,fluorescence intensity,[16]; [28],26 MFI
same,fluorescence intensity,[16]; [29],32.5 MFI
same,fluorescence intensity,[16]; [30],32.5 MFI
same,fluorescence intensity,[16]; [31],74.5 MFI
same,fluorescence intensity,[17]; [24],27.2 MFI
same,fluorescence intensity,[17]; [25],27 MFI
same,fluorescence intensity,[17]; [26],24.8 MFI
same,fluorescence intensity,[17]; [27],24.5 MFI
same,fluorescence intensity,[17]; [28],25 MFI
same,fluorescence intensity,[17]; [29],27.5 MFI
same,fluorescence intensity,[17]; [30],27.5 MFI
same,fluorescence intensity,[17]; [31],55 MFI
same,fluorescence intensity,[18]; [24],26.5 MFI
same,fluorescence intensity,[18]; [25],25 MFI
same,fluorescence intensity,[18]; [26],25.5 MFI
same,fluorescence intensity,[18]; [27],27 MFI
same,fluorescence intensity,[18]; [28],24.5 MFI
same,fluorescence intensity,[18]; [29],25.8 MFI
same,fluorescence intensity,[18]; [30],33 MFI
same,fluorescence intensity,[18]; [31],44 MFI
same,fluorescence intensity,[19]; [24],20.2 MFI
same,fluorescence intensity,[19]; [25],20 MFI
same,fluorescence intensity,[19]; [26],21.5 MFI
same,fluorescence intensity,[19]; [27],18 MFI
same,fluorescence intensity,[19]; [28],19.5 MFI
same,fluorescence intensity,[19]; [29],19.5 MFI
same,fluorescence intensity,[19]; [30],22.5 MFI
same,fluorescence intensity,[19]; [31],25 MFI
same,fluorescence intensity,[20]; [24],25.2 MFI
same,fluorescence intensity,[20]; [25],22 MFI
same,fluorescence intensity,[20]; [26],24 MFI
same,fluorescence intensity,[20]; [27],23.5 MFI
same,fluorescence intensity,[20]; [28],22.5 MFI
same,fluorescence intensity,[20]; [29],25 MFI
same,fluorescence intensity,[20]; [30],25.5 MFI
same,fluorescence intensity,[20]; [31],53.2 MFI
same,fluorescence intensity,[21]; [24],24.8 MFI
same,fluorescence intensity,[21]; [25],23.5 MFI
same,fluorescence intensity,[21]; [26],24.2 MFI
same,fluorescence intensity,[21]; [27],24.2 MFI
same,fluorescence intensity,[21]; [28],22.5 MFI
same,fluorescence intensity,[21]; [29],25 MFI
same,fluorescence intensity,[21]; [30],25 MFI
same,fluorescence intensity,[21]; [31],31 MFI
same,fluorescence intensity,[22]; [24],19.2 MFI
same,fluorescence intensity,[22]; [25],20.2 MFI
same,fluorescence intensity,[22]; [26],18.2 MFI
same,fluorescence intensity,[22]; [27],19 MFI
same,fluorescence intensity,[22]; [28],19.5 MFI
same,fluorescence intensity,[22]; [29],19.2 MFI
same,fluorescence intensity,[22]; [30],20.5 MFI
same,fluorescence intensity,[22]; [31],24 MFI
same,fluorescence intensity,[23]; [24],22 MFI
same,fluorescence intensity,[23]; [25],20.5 MFI
same,fluorescence intensity,[23]; [26],20.5 MFI
same,fluorescence intensity,[23]; [27],20 MFI

# Reformatted with tabs: entries from further up.
binder	measurement	setting	value
4-127.1 (protein) chain 1: QVQLQESGPGLVKPSETLSLTCAVSDYSINTGHGWTWIRQPPGKGLEWIGYIGGSSGSPNYNPSLKSRVTISKDTSKNELSLKLNSVTAADTAVYYCARRIPADRSGNDFWGQGVLVTVSS chain 2: QSVLTQPPSVSGDPGQRVTISCTGSSSNIGGFYGYWYQQFPGTAPKLLIYDNNKRPSGISDRFSGSKSGTSASLTITGLQPGDEADYYCGSWDSSLSAHVFGSGTKLTVL	fluorescence intensity	[6]; [24]	16.2 MFI
same	fluorescence intensity	[6]; [25]	16.8 MFI
same	fluorescence intensity	[6]; [26]	16.8 MFI
same	fluorescence intensity	[6]; [27]	17.5 MFI
same	fluorescence intensity	[6]; [28]	17.5 MFI

# Source: the supplement of paper PMC11438910
